Source: patent US20220242945A1

B1: 10E2 (VHH, not shown: small tags and cut ends)
VHH: EVQLVESGGGLAQAGGSLRLSCAPSGRAFSGSAMGWFRQVPGKEREFVGVIIWTGGYTYYADSVKGRFTISRDSAKNTVYLQMDSLKPEDTAVYYCAARTPNSSWFPTTLYEYDYWGQGTQVTVSS
B2: 12G1 (VHH, not shown: small tags and cut ends)
VHH: EVQLVESGGGLVQPGGSLRLSCAASVSIWSFKVMGWYRQVPGKQRELVATITTGGSPDYADSVKGRFTMSRDYDKRTVFLEMDSVKPEDAAVYYCNGRLWAHLTSSGHDVWGQGTRVTVSS
B3: 1E2 (VHH, not shown: small tags and cut ends)
VHH: B2 VHH with R116Q
B4: ID-L253T (VHH)
VHH: DVQLVESGGGQVQPGGSLSLSCESSVSIWSFKVMGWFRQVPGKQRELVATITTGGSPDYSDSVKGRFTISRDYDKRTLYLQMNSLKPEDTAVYYCAGRLWAHITSSGHDVWGQGTQVTVSS

What was measured:
[1] = target: recombinant cynomolgus monkey IL-23 (cynomolgus monkey); assay: cynomolgus monkey IL-23-IL-23R neutralisation ELISA
IL-27 = assay: binding or inhibition ELISA (which of the two is not said)
IFNγ = assay: as above

| Binder | binding [1] | binding (IL-27) | binding (IFNγ) |
| --- | --- | --- | --- |
| B1 | binds |  |  |
| B2 | binds |  |  |
| B3 | binds |  |  |
| B4 | binds | no binding | no binding |

Where a chain is given by its changes, count along the chain named. In names and notes the source's numbering stands. These are yes or no findings as the source states them, for the method shown. For part of these data: Binding can be weak; no strength is given.
